This passage reports binding results from paper PMC12151214.

The chains behind the UniProt entries cited, without tags or fusion partners. Where a name states a change or a piece, a line headed by the entry shows the natural chain unless it says otherwise.
UniProt P17096: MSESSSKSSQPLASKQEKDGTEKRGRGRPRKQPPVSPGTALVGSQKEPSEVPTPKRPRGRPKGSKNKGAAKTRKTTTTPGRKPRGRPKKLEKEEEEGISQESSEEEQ
UniProt Q96DE0: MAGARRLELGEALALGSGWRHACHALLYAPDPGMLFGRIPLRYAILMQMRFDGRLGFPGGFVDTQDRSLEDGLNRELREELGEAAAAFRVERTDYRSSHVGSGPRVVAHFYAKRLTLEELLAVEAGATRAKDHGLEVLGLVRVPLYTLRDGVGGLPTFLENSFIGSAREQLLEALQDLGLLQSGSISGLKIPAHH
UniProt P09874: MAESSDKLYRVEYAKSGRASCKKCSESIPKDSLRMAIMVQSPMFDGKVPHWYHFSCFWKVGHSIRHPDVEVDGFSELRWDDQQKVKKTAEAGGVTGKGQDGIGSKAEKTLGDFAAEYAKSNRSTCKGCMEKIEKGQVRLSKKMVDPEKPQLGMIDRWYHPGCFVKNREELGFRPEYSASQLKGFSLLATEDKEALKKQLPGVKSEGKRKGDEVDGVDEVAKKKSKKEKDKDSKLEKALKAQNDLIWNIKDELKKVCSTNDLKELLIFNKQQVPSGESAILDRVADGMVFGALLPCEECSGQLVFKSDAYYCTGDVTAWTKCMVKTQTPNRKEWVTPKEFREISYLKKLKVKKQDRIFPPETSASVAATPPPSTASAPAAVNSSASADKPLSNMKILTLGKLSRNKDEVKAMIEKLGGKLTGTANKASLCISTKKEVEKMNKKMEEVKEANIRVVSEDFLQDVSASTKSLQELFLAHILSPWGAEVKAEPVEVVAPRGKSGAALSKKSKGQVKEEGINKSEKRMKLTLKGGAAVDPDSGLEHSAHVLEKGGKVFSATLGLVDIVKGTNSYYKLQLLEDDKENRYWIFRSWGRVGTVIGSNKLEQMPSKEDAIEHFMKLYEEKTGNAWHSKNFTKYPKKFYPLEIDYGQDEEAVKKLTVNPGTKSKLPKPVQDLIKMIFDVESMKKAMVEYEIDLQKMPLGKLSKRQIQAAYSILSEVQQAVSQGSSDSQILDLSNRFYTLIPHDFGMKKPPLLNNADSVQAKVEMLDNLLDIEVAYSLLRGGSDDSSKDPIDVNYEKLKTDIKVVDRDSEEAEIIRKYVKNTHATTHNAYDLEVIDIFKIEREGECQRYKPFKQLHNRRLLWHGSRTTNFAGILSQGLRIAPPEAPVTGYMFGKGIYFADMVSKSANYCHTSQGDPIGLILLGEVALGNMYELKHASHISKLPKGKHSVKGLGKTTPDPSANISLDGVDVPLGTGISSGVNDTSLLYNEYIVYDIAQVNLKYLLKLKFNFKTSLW
UniProt Q9BXW9: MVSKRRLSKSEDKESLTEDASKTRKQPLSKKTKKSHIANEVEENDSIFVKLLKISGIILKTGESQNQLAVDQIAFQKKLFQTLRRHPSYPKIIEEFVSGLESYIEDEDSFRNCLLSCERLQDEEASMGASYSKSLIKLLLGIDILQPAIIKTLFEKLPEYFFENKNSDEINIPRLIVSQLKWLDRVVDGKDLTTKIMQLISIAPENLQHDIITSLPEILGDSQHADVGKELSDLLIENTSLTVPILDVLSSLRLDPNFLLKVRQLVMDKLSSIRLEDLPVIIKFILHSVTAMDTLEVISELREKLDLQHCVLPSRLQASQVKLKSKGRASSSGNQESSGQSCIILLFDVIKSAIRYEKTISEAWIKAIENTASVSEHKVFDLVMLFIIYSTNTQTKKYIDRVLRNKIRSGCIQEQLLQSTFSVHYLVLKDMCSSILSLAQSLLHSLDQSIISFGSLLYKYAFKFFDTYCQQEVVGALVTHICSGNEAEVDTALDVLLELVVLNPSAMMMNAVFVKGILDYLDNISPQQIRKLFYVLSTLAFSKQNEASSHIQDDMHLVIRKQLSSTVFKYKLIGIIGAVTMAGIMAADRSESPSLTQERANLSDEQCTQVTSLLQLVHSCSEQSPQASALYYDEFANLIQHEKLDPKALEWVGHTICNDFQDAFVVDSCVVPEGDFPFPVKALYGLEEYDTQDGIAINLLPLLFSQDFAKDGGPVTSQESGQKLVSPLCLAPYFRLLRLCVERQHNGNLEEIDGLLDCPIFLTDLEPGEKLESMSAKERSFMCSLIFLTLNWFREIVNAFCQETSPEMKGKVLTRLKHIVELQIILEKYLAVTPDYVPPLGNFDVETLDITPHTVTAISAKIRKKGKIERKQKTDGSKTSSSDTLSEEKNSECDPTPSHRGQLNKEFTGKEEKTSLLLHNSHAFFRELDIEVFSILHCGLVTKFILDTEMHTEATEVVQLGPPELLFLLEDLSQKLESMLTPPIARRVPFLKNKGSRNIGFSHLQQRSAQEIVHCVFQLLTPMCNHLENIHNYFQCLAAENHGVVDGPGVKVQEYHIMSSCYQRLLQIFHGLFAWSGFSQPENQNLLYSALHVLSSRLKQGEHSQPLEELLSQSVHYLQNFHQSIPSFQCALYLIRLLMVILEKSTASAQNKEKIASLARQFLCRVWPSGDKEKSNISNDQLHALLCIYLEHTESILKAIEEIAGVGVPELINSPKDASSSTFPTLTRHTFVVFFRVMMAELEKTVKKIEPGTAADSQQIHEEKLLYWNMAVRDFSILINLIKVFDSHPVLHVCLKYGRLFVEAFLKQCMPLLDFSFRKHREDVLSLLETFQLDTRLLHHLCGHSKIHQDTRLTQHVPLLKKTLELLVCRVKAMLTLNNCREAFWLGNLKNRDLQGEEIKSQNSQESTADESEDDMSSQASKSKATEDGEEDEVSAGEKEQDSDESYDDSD
UniProt Q9NVI1: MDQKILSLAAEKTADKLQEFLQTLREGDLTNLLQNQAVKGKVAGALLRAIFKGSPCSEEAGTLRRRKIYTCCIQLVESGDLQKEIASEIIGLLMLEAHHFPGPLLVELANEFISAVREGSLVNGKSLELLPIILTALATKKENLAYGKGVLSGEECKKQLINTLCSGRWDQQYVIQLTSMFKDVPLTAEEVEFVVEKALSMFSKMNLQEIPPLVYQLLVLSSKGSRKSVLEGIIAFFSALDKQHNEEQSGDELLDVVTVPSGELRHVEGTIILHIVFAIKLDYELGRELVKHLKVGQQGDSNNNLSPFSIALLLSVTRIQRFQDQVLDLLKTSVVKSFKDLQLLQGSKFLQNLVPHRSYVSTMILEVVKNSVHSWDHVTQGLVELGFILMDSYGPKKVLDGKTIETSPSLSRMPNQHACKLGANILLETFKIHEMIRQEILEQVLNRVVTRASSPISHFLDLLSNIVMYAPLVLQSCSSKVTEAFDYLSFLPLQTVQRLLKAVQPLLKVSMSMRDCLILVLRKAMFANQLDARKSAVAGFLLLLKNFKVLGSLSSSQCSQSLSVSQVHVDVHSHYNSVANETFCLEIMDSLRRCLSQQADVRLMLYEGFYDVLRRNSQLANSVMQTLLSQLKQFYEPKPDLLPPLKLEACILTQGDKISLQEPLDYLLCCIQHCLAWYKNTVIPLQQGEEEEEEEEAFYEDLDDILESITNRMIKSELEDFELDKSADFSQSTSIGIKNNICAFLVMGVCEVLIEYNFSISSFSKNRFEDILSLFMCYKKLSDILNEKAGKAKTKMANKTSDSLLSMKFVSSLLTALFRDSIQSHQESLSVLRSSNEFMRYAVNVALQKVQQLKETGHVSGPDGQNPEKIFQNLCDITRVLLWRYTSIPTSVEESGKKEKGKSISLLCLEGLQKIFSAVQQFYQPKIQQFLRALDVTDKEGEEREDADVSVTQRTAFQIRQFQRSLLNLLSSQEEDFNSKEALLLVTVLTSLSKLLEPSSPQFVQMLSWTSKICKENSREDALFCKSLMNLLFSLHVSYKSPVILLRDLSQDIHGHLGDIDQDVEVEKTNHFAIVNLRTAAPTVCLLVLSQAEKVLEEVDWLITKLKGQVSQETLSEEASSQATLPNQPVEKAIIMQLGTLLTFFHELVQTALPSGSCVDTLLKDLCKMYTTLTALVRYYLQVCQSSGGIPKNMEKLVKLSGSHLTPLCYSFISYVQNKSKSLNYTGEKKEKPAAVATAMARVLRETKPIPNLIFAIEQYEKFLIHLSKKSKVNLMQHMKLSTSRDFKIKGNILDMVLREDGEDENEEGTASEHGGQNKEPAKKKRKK
UniProt Q06609: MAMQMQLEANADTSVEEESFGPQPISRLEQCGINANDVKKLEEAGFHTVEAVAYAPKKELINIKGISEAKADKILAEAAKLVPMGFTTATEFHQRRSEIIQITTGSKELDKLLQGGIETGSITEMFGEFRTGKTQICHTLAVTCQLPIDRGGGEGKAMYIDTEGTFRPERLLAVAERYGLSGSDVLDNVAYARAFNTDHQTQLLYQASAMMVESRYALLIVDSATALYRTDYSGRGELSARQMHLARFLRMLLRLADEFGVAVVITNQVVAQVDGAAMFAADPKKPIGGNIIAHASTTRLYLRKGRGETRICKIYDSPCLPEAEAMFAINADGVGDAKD

In test [1] the target is HMGA1 (high mobility group A1) of the co-IP in Fig. S1J (human) (UniProt P17096). The test is described as follows: co-IP; validation of BioGRID interactors of HMGA1 (Fig. S1J); cells, plasmids and beads not shown.
Test [2] has as its target SFB-HMGA1 (high mobility group A1), expressed in HeLa cells (human) (UniProt P17096). The test is described as follows: co-IP; HeLa cells transfected 24 h, untreated or treated with 4 mM HU for 3 h; lysate (NETN buffer with benzonase) on anti-S beads, western blot. (Immunoblotting shows a protein as a band on a membrane.)
A further test has as its target T1, SFB-CHFR (WT) (human) (UniProt Q96EP1).
T1 sequence: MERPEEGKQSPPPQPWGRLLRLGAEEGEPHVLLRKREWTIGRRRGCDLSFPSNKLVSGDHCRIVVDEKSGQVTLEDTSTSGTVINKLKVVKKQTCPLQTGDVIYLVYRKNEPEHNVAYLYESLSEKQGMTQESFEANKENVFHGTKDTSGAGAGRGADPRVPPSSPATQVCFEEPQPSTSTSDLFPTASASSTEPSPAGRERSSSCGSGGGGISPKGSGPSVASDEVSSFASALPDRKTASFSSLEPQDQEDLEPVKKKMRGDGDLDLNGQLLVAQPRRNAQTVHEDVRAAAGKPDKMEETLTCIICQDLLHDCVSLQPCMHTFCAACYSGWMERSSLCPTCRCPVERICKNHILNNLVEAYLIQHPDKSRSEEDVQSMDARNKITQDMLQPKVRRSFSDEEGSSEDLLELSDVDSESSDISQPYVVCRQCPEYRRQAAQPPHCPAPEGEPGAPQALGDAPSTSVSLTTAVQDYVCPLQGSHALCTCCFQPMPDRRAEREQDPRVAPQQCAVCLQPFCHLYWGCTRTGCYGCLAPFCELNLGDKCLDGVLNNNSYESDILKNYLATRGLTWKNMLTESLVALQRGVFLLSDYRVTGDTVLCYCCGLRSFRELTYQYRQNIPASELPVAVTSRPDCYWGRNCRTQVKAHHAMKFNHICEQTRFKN
The test is described as follows: co-IP; HEK293T cells transiently transfected 24 h; lysate (NETN buffer with benzonase) on anti-S beads overnight at 4 °C, western blot.

The target in test [3] is NUDT16, expressed in HEK293T cells (human) (UniProt Q96DE0). The test is described as above.
The target in test [4] is T2, CHFR of the exogenous co-IP (Figure 6A), expressed in HEK293T cells (human) (UniProt Q96EP1).
T2 sequence: T1 sequence
Described as above.

In test [5] the target is PARP1, expressed in HEK293T cells (human) (UniProt P09874). Described as above.
Test [6] deals with T3, CHFR, endogenous in HeLa cells (human (endogenous in HeLa)) (UniProt Q96EP1).
T3 sequence: T1 sequence
The experiment in a line: co-IP; endogenous proteins, HeLa lysate, anti-CHFR antibodies against anti-IgG control, western blot.

The target in test [7] is NUDT16, endogenous in HepG2 cells (human (endogenous in HepG2)) (UniProt Q96DE0). The experiment in a line: co-IP; endogenous proteins, HepG2 lysate, anti-NUDT16 antibodies against anti-IgG control, western blot.
For the next test, the target named is T4, HA-CHFR (human) (UniProt Q96EP1).
T4 sequence: T1 sequence
The test is described as follows: co-IP; HEK293T cells transfected with HA-CHFR and SFB-HMGA1 (WT or E47/50Q); lysate on anti-HA beads, western blot.

These are yes or no findings as the source states them, for the method shown. In cells and extracts the contact can be indirect. Some binding calls cover weakened binding; strength is not graded here. For some assays here: Sequences can lack the tags named with a protein.

Take FANCD2 (from UniProt Q9BXW9 1-1451): the binding result in [1] and in [2] was “binds” throughout.

For the substance FANCI (from UniProt Q9NVI1 1-1328), the binding result in test [1] is reported as “binds”.

As to “HMGA1 (high mobility group A1) in HEK293T lysate, co-IPs with anti-S beads (from UniProt P17096 1-107)”, the binding entry (in the test with SFB-CHFR (WT) (human); in [3]; in [4]; in test [5]) was “binds” each time.

As for “HMGA1, endogenous in HeLa cells (from UniProt P17096 1-107)”, the binding entry in [6] is “binds”.

As to “HMGA1, endogenous in HepG2 cells (from UniProt P17096 1-107)”, the binding entry in test [7] is given as “binds”.

As to RAD51 (from UniProt Q06609 1-339), the binding result in test [1] is reported as “binds”.

Take “SFB-HMGA1 (WT), expressed in HEK293T cells (from UniProt P17096 1-107)”: the binding result with HA-CHFR (human) is on record as “binds”.
